{"sequences": {"note": "Chains of the proteins cited; added tags and fusions are not shown. Lines headed by an entry give the natural chain unless they say otherwise; changes in a name come on top.", "UniProt Q8NEY1": "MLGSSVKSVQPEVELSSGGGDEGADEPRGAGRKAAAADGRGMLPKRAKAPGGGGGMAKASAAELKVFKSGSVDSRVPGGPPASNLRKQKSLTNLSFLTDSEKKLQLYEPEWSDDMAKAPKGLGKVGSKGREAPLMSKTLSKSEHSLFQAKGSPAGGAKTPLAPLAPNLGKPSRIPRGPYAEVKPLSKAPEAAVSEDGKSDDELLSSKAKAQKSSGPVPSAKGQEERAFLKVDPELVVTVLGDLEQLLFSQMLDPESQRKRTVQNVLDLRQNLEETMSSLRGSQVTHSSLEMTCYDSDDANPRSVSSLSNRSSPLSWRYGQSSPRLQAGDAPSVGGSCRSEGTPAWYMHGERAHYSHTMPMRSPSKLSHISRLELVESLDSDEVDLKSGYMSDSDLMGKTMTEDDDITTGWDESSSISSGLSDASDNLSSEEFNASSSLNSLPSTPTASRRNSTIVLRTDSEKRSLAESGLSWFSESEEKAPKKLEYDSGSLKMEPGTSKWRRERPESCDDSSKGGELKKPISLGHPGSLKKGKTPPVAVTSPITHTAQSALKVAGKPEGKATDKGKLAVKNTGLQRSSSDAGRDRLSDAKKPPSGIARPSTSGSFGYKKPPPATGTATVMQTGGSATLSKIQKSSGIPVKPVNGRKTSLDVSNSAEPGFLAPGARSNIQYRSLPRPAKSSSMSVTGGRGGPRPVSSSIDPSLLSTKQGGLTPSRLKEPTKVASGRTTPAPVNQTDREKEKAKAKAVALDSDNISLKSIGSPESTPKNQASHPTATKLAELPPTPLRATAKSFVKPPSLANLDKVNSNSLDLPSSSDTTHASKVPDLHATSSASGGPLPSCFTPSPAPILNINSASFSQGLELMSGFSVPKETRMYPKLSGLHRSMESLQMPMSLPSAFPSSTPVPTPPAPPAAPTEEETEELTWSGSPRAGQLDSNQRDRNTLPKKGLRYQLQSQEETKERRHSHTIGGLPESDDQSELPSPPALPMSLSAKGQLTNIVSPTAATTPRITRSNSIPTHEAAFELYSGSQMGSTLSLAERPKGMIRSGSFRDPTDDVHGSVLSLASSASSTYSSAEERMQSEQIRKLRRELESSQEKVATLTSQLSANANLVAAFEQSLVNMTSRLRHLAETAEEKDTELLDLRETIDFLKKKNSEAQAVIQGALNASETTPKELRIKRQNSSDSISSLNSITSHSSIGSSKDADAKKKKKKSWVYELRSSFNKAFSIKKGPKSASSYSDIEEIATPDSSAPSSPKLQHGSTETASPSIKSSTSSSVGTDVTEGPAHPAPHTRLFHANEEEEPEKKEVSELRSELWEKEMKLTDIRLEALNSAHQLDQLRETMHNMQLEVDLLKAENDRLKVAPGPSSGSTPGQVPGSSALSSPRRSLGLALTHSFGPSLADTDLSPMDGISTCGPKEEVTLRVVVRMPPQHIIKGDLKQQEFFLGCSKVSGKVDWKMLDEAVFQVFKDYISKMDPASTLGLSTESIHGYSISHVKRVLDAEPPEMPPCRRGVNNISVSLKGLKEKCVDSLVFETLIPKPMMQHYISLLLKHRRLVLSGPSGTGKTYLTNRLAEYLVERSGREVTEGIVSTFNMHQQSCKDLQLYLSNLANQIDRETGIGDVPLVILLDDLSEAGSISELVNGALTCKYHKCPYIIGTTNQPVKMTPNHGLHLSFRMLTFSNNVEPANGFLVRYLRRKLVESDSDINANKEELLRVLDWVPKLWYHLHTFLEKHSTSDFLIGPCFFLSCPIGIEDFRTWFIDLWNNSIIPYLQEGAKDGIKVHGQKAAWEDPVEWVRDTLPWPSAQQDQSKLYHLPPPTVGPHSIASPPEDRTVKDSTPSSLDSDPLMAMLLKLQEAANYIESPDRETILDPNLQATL"}, "source": "paper PMC5996148", "assay_in_all_cases": "protein microarray (ProtoArray v5.0), streptavidin-Alexa Fluor 647", "conditions_in_all_cases": "3'-biotin; 20 mM Tris (pH 7.5), 5 mM MgCl2, 100 mM KCl, 0.1% Tween-20, A/T-rich and random oligonucleotide blockers; temperature not stated; high values mean tight binding", "key": {"[1]": {"tested_on": "Mitogen-activated protein kinase 10 (human)"}, "[2]": {"tested_on": "Mitogen-activated protein kinase 14 (human)"}, "[3]": {"tested_on": "Mitogen-activated protein kinase kinase kinase 2 (human)"}, "[4]": {"tested_on": "Mps one binder kinase activator-like 3 (human)"}, "[5]": {"tested_on": "Myelin basic protein (human)"}, "[6]": {"tested_on": "Myosin light chain 2, lymphocyte-specific (human)"}, "[7]": {"tested_on": "Myosin light chain kinase, smooth muscle (human)"}, "[8]": {"tested_on": "NA (human)"}, "[9]": {"tested_on": "NAGK (human)"}, "[10]": {"tested_on": "NAPG (human)"}, "[11]": {"tested_on": "NAPRT1 (human)"}, "[12]": {"tested_on": "NASP (human)"}, "[13]": {"target": "NAV1 (UniProt Q8NEY1)"}, "[14]": {"tested_on": "NBPF1 (human)"}, "[15]": {"tested_on": "NBPF22P (human)"}, "[16]": {"tested_on": "NDRG2 (human)"}, "[17]": {"tested_on": "NDRG4 (human)"}, "[18]": {"tested_on": "NDUFA4 (human)"}, "[19]": {"tested_on": "NDUFA5 (human)"}, "[20]": {"tested_on": "NDUFB1 (human)"}}, "note": "Values joined by “and” are separate entries in the source; they are usually repeats but may differ in a detail not shown here. Identical values can stand only once. The list shows a part of the results. For some assays here: The source does not settle which construct or isoform was used.", "data": [{"sequence": "GGGGACAGGGGTATGGGGAGGGG [G4-3 biotinylated (CtG)]", "values": [{"measurement": "binding signal", "setting": "[1]", "result": -0.334, "unit": "z-score"}, {"measurement": "binding signal", "setting": "[2]", "result": -0.313, "unit": "z-score"}, {"measurement": "binding signal", "setting": "[3]", "result": -0.281, "unit": "z-score"}, {"measurement": "binding signal", "setting": "[4]", "result": -0.307, "unit": "z-score"}, {"measurement": "binding signal", "setting": "[5]", "result": -0.337, "unit": "z-score"}, {"measurement": "binding signal", "setting": "[6]", "result": -0.33, "unit": "z-score"}, {"measurement": "binding signal", "setting": "[7]", "result": -0.335, "unit": "z-score"}, {"measurement": "binding signal", "setting": "[8]", "result": 4.96, "unit": "z-score"}, {"measurement": "binding signal", "setting": "[9]", "result": -0.329, "unit": "z-score"}, {"measurement": "binding signal", "setting": "[10]", "result": -0.322, "unit": "z-score"}, {"measurement": "binding signal", "setting": "[11]", "result": -0.331, "unit": "z-score"}, {"measurement": "binding signal", "setting": "[12]", "result": -0.332, "unit": "z-score"}, {"measurement": "binding signal", "setting": "[13]", "result": -0.33, "unit": "z-score"}, {"measurement": "binding signal", "setting": "[14]", "result": -0.337, "unit": "z-score"}, {"measurement": "binding signal", "setting": "[15]", "result": -0.34, "unit": "z-score"}, {"measurement": "binding signal", "setting": "[16]", "result": -0.309, "unit": "z-score"}, {"measurement": "binding signal", "setting": "[17]", "result": "-0.335 z-score and -0.343 z-score"}, {"measurement": "binding signal", "setting": "[18]", "result": -0.304, "unit": "z-score"}, {"measurement": "binding signal", "setting": "[19]", "result": -0.341, "unit": "z-score"}, {"measurement": "binding signal", "setting": "[20]", "result": -0.327, "unit": "z-score"}]}]}
